Results reported in patent US20060073133A1 (published 2006).
These are yes or no findings as the source states them, for the method shown. Some results given as binding are weak or reduced against the parent protein; the word gives no strength. Sequences can lack the tags named with a protein.

Target: T1, SAF-3/Fc fusion (human) (UniProt Q9Y286)
T1 sequence: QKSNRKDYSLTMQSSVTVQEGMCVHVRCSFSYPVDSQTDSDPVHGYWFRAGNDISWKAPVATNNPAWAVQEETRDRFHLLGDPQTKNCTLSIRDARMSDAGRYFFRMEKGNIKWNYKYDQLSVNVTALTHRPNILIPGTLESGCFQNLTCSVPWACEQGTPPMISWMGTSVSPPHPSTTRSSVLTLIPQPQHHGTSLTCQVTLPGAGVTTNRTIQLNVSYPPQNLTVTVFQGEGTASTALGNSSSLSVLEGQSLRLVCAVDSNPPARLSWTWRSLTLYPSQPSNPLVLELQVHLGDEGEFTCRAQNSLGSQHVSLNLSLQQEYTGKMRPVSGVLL
Experiment: time-resolved fluorescence immunoassay, SAF-3/Fc coated at 0.5 ug/mL, Eu-labelled anti-mouse IgG; rescreened by immunoassay and BIAcore

binding: binds
B1: monoclonal antibody 12B1 (antibody, IgG2a, V domains shown)
VH: QIQLQQSGPELVKPGASVKVSCKASGYSFTDYNIYWVKQSHGKSLEWIGYIDPYNDDTGYNQKFKGKATLTVDKSSSTAFMHLNSLTSEDSAVYYCASEGIHWGQGTLVTVS
VL: DIVMTQSQKFMSTSVGDRVSVTCKASQNVGTNVAWFQQKPGQSPKALIYSASYRYNGVPDRFTGSGSGTDFTLTISNVQSEDLADYFCQQYNIYPYTFGGGTKLEIK
notes: also called mAb 12B1; SAF-3 mAb (clone 12B1)
